Measured values: article doi:10.1101/2020.09.10.287607 (bioRxiv, 2020)
Where two headings read alike, the source gives them in different places. Results are given in words; binding and its absence hold for the method and conditions named. Some entries that bind do so weakly or less than the wild type.

The chains behind the UniProt entries cited, without tags or fusion partners. Residues count along the entry.
UniProt Q6UXX9, residues 22-243: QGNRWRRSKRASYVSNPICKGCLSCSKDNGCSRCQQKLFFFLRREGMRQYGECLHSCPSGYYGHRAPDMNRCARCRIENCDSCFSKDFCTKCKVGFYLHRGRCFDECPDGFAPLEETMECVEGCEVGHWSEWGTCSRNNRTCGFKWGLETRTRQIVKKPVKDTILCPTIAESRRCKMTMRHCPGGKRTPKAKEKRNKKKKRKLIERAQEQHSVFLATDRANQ

Legend:
Assay in all cases: in vitro binding assay
[1] = target: T1, recombinant human RSPO3 (Peprotech 120-44) (human) (UniProt Q9BXY4)
T1 sequence: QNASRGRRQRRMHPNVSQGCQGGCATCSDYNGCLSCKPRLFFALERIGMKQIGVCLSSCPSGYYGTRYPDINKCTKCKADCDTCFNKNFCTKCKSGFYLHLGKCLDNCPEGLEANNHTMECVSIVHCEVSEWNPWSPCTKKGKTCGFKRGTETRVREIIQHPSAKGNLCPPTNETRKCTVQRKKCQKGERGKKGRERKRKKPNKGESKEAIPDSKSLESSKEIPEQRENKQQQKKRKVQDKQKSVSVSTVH

[2] = target: recombinant human RSPO2 (Peprotech 120-43) (human) (UniProt Q6UXX9)
[3] = target: T1, recombinant human RSPO3 (Peprotech 120-44) (human); remark: listed apart in the source
[4] = target: recombinant human RSPO2 (Peprotech 120-43) (human) (UniProt Q6UXX9); remark: listed apart in the source

Measured: binding

B1: BMPR1A^ECD-AP (domain or fragment, UniProt P36894 24-152, looked up)
chain: QNLDSMLHGTGMKSDSDQKKSENGVTLAPEDTLPFLKCYCSGHCPDDAINNTCITNGHCFAIIEEDDQGETTLASGCMKYEGSDFQCKDSPKAQLRRTIECCRTNLCNQYLQPTLPPVVIGPFFDGSIR
binds: all assays above
